Results published in PMC9829410.
Results are given in words; binding and its absence hold for the method and conditions named. In cells and extracts the contact can be indirect. Some results given as binding are weak or reduced against the parent protein; the word gives no strength.

By UniProt entry, the sequences of proteins in these tests, tags left out. Residues count along the entry.
UniProt P08581, residues 25-1390: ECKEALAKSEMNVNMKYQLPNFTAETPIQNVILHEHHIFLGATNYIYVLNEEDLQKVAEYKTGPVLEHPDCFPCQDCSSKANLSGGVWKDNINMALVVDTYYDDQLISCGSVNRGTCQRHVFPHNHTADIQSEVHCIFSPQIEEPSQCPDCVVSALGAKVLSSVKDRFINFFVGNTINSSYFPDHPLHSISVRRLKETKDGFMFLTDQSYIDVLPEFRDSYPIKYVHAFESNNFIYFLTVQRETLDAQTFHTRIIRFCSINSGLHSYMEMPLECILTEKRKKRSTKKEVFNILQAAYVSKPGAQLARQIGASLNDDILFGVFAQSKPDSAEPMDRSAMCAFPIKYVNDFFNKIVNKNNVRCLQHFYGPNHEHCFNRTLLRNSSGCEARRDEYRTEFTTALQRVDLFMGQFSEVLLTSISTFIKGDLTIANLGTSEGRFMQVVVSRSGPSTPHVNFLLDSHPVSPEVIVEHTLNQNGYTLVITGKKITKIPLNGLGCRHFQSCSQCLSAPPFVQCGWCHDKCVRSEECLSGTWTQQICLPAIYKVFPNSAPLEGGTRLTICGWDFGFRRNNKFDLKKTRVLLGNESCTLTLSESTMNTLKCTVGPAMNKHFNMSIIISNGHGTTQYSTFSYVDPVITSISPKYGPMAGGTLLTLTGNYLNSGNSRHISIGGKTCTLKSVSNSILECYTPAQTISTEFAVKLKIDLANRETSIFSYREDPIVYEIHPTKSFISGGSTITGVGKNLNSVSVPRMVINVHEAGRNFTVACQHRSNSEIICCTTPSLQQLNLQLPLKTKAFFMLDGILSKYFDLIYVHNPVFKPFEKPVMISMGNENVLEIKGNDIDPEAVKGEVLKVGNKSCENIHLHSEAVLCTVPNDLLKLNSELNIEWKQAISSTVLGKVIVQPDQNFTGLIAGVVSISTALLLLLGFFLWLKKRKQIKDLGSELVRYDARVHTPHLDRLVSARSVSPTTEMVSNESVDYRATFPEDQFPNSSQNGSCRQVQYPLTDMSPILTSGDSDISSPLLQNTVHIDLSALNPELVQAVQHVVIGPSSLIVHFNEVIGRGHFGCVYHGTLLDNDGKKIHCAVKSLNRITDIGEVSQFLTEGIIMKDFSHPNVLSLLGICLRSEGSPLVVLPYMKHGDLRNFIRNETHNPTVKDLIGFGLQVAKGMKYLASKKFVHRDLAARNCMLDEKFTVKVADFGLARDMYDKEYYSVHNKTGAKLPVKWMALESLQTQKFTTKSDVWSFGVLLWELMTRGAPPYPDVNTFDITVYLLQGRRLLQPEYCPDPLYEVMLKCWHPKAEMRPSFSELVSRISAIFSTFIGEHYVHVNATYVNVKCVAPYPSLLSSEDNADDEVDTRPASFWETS
UniProt P16070, residues 21-742: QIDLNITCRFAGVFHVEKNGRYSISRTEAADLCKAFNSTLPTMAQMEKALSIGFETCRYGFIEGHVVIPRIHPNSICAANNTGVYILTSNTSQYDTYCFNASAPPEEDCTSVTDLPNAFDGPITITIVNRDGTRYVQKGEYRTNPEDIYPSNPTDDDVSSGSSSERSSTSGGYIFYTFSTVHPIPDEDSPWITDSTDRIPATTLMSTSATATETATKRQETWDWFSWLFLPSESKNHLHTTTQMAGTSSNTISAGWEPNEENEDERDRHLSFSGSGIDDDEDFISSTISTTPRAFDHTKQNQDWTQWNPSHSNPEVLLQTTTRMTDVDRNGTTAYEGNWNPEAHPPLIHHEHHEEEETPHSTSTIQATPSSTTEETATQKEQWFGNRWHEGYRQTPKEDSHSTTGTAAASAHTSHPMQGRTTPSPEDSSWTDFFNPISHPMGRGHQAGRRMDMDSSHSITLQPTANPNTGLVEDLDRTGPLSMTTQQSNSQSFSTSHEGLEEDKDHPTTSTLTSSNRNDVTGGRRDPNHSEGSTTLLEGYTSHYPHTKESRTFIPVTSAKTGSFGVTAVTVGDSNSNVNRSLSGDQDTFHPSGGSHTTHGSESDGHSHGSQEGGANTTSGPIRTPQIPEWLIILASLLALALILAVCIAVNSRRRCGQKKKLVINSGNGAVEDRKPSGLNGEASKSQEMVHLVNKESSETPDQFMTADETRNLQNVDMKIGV

Assays:
[1] = target: cMET (human (endogenous in JJ012)) (UniProt P08581); assay: co-IP; IP with cMET antibody (IgG as control) from lysates of JJ012 vector control cells in NETN buffer (150 mM NaCl, 1 mM EDTA, 20 mM Tris-HCl, 0.5% NP40), overnight at 4°C, protein A/G, western blot
[2] = target: cMET (human (endogenous in JJ012)) (UniProt P08581); assay: condition: only in cells that ectopically express SULF1; co-IP; IP with cMET antibody (IgG as control) from lysates of JJ012 cells stably expressing ectopic SULF1, NETN buffer, overnight at 4°C, protein A/G, western blot

binding [1]: binds
binding [2]: no binding
Substance: CD44 (from UniProt P16070 21-742) (receptor)
